Protein sequences, listed by entry. Tags and fused reporters are not part of them. Lines headed by an entry give the natural chain unless they say otherwise; changes in a name come on top.
UniProt Q9UNQ0: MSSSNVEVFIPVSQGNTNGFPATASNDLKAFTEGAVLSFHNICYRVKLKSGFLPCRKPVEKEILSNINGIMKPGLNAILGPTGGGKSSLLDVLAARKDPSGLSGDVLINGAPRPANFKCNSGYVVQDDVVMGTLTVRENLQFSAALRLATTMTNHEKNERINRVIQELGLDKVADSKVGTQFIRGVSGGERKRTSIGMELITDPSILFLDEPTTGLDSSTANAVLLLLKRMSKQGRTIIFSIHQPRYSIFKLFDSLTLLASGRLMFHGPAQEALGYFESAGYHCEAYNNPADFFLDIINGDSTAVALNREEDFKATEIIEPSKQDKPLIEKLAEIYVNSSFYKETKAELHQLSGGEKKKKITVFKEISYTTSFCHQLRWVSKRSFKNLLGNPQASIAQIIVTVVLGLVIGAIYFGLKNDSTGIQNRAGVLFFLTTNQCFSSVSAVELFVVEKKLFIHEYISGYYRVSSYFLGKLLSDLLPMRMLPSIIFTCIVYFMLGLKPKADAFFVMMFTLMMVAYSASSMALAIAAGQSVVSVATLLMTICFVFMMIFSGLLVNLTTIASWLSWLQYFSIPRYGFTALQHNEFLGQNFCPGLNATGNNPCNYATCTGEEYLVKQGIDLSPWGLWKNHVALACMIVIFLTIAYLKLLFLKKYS

Inconclusive results, whose numbers are uncertain, are shown with a selection of clear calls. A potency beside an inconclusive call is a rough fit, not a confirmed value. Calls of active or inactive are those of the source. The calls were made as follows: active = hit-call score of the fitted dose curve at least 0.9, where 1 is the maximum; inconclusive = response in the unintended direction; inactive = score below 0.9.
Read-out: Broad substrate specificity ATP-binding cassette transporter ABCG2 (Homo sapiens) (UniProt Q9UNQ0)
Assay: CLD_ABCG2_6hr: CellzDirect (CLD) Gene Expression Assay for ABC Transporter (ABCG2) at 6 hours (AID 2283660)
In short: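 Primary human hepatocytes dosed daily with chemicals at multiple concentrations (0.2% DMSO vehicle), harvested 6 h after dosing. ABCG2 mRNA induction read by quantitative nuclease protection assay (qNPA) chemiluminescence; gain of signal fitted against DMSO baseline.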
For `CCOC(=O)COc1cc(-n2ncc(C(F)(F)F)c(C)c2=O)c(F)cc1Cl`, the AC50 was inconclusive: 20 µM. In the case of `CCCCCOC(=O)COc1cc(N2C(=O)C3=C(CCCC3)C2=O)c(F)cc1Cl`, the outcome is reported as “inactive”. In the case of `CC(C)(c1ccc(O)cc1)c1ccc(O)cc1`, the outcome is reported as “inactive”. In the case of `COc1nc(C)nc(NC(=O)NS(=O)(=O)c2ccccc2OCCCl)n1`, the AC50 is reported as inconclusive: 0.0745 µM. In the case of `CN(C)C(=O)Nc1ccc(Cl)c(Cl)c1`, the AC50 is reported as inconclusive: 0.13 µM. For `c1ccc2[nH]c(-c3cscn3)nc2c1`, the AC50 was inconclusive: 20 µM.

Read-out: xenobiotic metabolism (CYP1A1), CYP1A1 (gene 1543)
Assay: CLD_CYP1A1_6hr: CellzDirect (CLD) Gene Expression Assay for xenobiotic metabolism (CYP1A1) at 6 hours (AID 2283661);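 also: potency for transcript induction above DMSO vehicle baseline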
Procedure: CLD_6hr is a cell-based, multiplexed-readout assay that uses hepatocyte, a human liver primary cell, with measurements taken at 6 hours after chemical dosing in a 96-well plate.CLD_CYP1A1_6hr is one of 16 assay component(s) measured or calculated from the CLD_6hr assay. It is designed to make measurements of mRNA induction, a form of inducible reporter, as detected with chemiluminescence signals by Quantitative Nuclease Protection Assay (qNPA) technology.Data from the assay component CLD_CYP1A1_6hr was analyzed at the endpoint, CLD_CYP1A1_6hr, in the positive analysis fitting direction relative to DMSO as the negative control and baseline of activity. Using a type of inducible reporter, gain-of-signal activity can be used to understand changes in the reporter gene as they relate to the gene CYP1A1. Furthermore, this assay endpoint can be referred to as a primary readout. To generalize the intended target to other relatable targets, this assay endpoint is annotated to the cyp intended target family, where subfamily is xenobiotic metabolism.
Human hepatocyte cultures were treated daily for two consecutive days with fresh dosing solutions containing appropriate concentrations of the 320 ToxCast chemicals (chemical identities were blinded to CellzDirect and other ToxCast collaborators), vehicle control (0.2% DMSO), and positive control inducers as summarized in Table 1. Due to the large number of treatment groups and chemicals examined, the ToxCast chemicals were divided into two groups (spanning two independent cultures of hepatocytes from separate donor preparations (Hu778: ToxCast plates 1 and 2; Hu776: ToxCast plates 3 and 4). Each preparation of human hepatocyte cultures was treated with respective vehicle control, medium only control, set of six positive controls/reference chemicals for the five hepatic receptor pathways, and a subset of eight of the ToxCast chemicals (indoxacarb, pyrithiobac-sodium, norflurazon, cyhalofop-butyl, methomyl, thiram, acetochlor, and propiconazole). These replicate data, coupled with internal replicates designed within the blinded ToxCast chemical library, provided additional data to evaluate interindividual differences between hepatocyte preparations and their potential impact on chemical profiles.Cell morphology and integrity were evaluated using phase-contrast microscopy as an indicator of hepatocyte cell health (Tyson & Green, 1987). Cultures for each treatment group (i.e., media, vehicle [0.2% DMSO], positive control inducers [multiple concentrations], and the ToxCast chemicals [multiple concentrations]) were observed and cell morphology was assessed relative to vehicle control cultures at each harvest time point (0, 6, 24, or 48 h). […] Images were evaluated at the conclusion of the study to assess changes in cell integrity and account for the effects of chemical exposure on uncharacteristic changes in concentration-dependent gene expression profiles. The results from these determinations of apparent cytotoxicity were annotated (yes/no) alongside the corresponding qNPA data for reference.At the conclusion of each treatment period, hepatocyte cultures (96-well) were washed with 1 volume of HBSS, lysed by addition of 25 ul ArrayPlate lysis buffer (HTG, Tucson, AZ), and 70 ul/well of Denaturation Oil, denatured by incubation at 95C for 10 min, and frozen at approximately -70C until analysis by nuclease protection assay (qNPA) (Roberts et al., 2007). […]
In the case of `CCCOC(=O)c1ccc(C(=O)OCCC)nc1`, the AC50 is reported as inconclusive: 0.00554 µM. For `COCCO`, the AC50 was inconclusive: 0.0004 µM. In the case of `c1ccc2[nH]c(-c3cscn3)nc2c1`, the AC50 is reported as active: 3.15 µM.

Read-out: xenobiotic metabolism (CYP2C9), CYP2C9 (gene 1559)
Assay: CLD_CYP2C9_6hr: CellzDirect (CLD) Gene Expression Assay for xenobiotic metabolism (CYP2C9) at 6 hours (AID 2283664)
In short: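 Primary human hepatocytes dosed daily with test chemicals at multiple concentrations; harvested at 6 h. CYP2C9 mRNA induction measured by qNPA chemiluminescence. Gain of signal fitted against 0.2% DMSO vehicle; cytotoxicity annotated from phase-contrast morphology.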
In the case of `CCCOC(=O)c1ccc(C(=O)OCCC)nc1`, the AC50 is reported as inconclusive: 20 µM. In the case of `CCOC(=O)COc1cc(-n2ncc(C(F)(F)F)c(C)c2=O)c(F)cc1Cl`, the outcome is reported as “inactive”. For `COC(=O)c1ccccc1C(=O)O`, the AC50 was inconclusive: 0.00356 µM. In the case of `CCCCCOC(=O)COc1cc(N2C(=O)C3=C(CCCC3)C2=O)c(F)cc1Cl`, the outcome is reported as “inactive”. With `COCCO` the outcome was “inactive”. In the case of `N#CSCSc1nc2ccccc2s1`, the AC50 is reported as active: 36.1 µM. With `COc1nc(C)nc(NC(=O)NS(=O)(=O)c2ccccc2OCCCl)n1` the outcome was “inactive”. In the case of `CN(C)C(=O)Nc1ccc(Cl)c(Cl)c1`, the AC50 is reported as inconclusive: 0.0856 µM. In the case of `c1ccc2[nH]c(-c3cscn3)nc2c1`, the AC50 is reported as inconclusive: 4.51 µM.

System: not listed separately
Assay: CCTE_Simmons_CellTiterGLO_HEK293T: Viability Assessment in CCTE's Assays for Thyroperoxidase (TPO) Inhibition, Simmons Lab (AID 2283665);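 as to AC50: cells exposed to compound for 24 h before readout; actives reduce ATP signal below DMSO vehicle meaning cytotoxicity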
In short: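 HEK293T cells in DMEM with 1% FBS were dosed with 8 concentrations (5 nM–87.5 uM final, 0.5% DMSO) for 24 hr at 37C; ATP content was read by CellTiter-Glo luminescence, loss-of-signal versus DMSO, three biological replicates.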
In the case of `CC(CCC(=O)O)(c1ccc(O)cc1)c1ccc(O)cc1`, the AC50 is reported as inconclusive: 53.8 µM. With `COc1ccc(C(=O)c2ccccc2)c(O)c1` the outcome was “inactive”. With `CCCCC/C=C\C/C=C\CCCCCCCC(=O)OC` the AC50 was active: 58.4 µM. In the case of `O=C(c1ccccc1)c1ccc(O)cc1O`, the AC50 is reported as inconclusive: 10.7 µM. For `C1=Cc2ccccc2C1`, the AC50 was inconclusive: 10.7 µM. In the case of `NC(N)=S`, the AC50 is reported as inconclusive: 54.4 µM. For `Nc1ccc(C(=O)O)cc1`, the AC50 was inconclusive: 43.8 µM. For `O=Cc1ccccc1O`, the AC50 was inconclusive: 0.361 µM. In the case of `C=CC(=C)CCC=C(C)C`, the outcome is reported as “inactive”. For `CCCCCCc1ccc(N)cc1`, the AC50 was active: 11.3 µM. In the case of `CC1=CCC(=C(C)C)CC1`, the AC50 is reported as inconclusive: 53.8 µM. For `CNC(=O)[C@H]1O[C@@H](n2cnc3c(NCc4cc(Cl)ccc4OCc4cc(C)no4)ncnc32)[C@H](O)[C@@H]1N`, the AC50 was inconclusive: 50.1 µM. For `COC(=O)c1c(C)cc(O)c(C)c1O`, the AC50 was inconclusive: 53.8 µM. With `CC(C)c1ccc(O)c(C(C)C)c1` the AC50 was active: 28.4 µM. For `CN(C)C(=O)Nc1ccc(Cl)c(Cl)c1`, the AC50 was inconclusive: 0.000657 µM. With `O=C(O)C1=NN(c2ccc(S(=O)(=O)O)cc2)C(=O)C1` the AC50 was inconclusive: 53.8 µM. With `O=P(OC(CCl)CCl)(OC(CCl)CCl)OC(CCl)CCl` the outcome was “inactive”. For `CC(C)NCC(O)COc1ccc(CC(N)=O)cc1` (stereo not drawn), the AC50 was inconclusive: 4.25 µM. With `CN(C)c1ccc(C(=N)c2ccc(N(C)C)cc2)cc1` the outcome was “inactive”. In the case of `CC(C)(C)c1ccc(-c2ccc(C(C)(C)C)cc2)cc1`, the AC50 is reported as inconclusive: 0.539 µM.

Reference: PubChem BioAssay (EPA / NIEHS)
